Laboratory results: PubChem BioAssay AID504444 (National Center for Advancing Translational Sciences (NCATS), 2011)
Screen size: about 360,000 compounds; about 7,500 (2.1%) were called active. Inconclusive means that the source gave no clear call. Such entries were picked first, then a sample of the others. Calls come from the whole dose curve; as a rule, active = well fitted inhibition curve with a large enough effect; inconclusive = small, poorly fitted or top-dose-only effect, or effect the other way; inactive = flat fitted curve, though single readings scatter. Potencies of inconclusive entries are doubtful fits and often do not repeat. Some structures have more than one record in an assay (separate samples or runs), and their calls can disagree.
% is set by controls: 0 for no effect and ±100 for the full control effect; potency is the fitted concentration of half-maximal effect.

Assay: Nrf2 qHTS screen for inhibitors; note: nearly all actives have a fitted effect of over 60% in size
Details: A549 ARE-Fluc reporter, luciferase luminescence, 18-24 h; activity change, negative = inhibition: at 46 µM (top of the series)
Outline: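 Two sequential reads on A549 ARE_Fluc cells exposed to compound for 18-24 h: a CellTiter-Fluor fluorescence read for viability, then a luciferase luminescence read for Nrf2/ARE activity.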
For `COc1cc(/C=C(\C#N)c2ccccn2)ccc1OCc1ccccc1Cl`, the “activity change, negative = inhibition” value was inactive: -18.9%.
With `COc1ccc(N(C(=O)c2ccco2)C(C(=O)NC2CCCC2)c2ccncc2)cc1` (stereo not drawn) the Potency was inconclusive: 1.46 µM [activator, full curve, poor fit].
In the case of `Cc1ccc(C(=O)N/N=C/c2ccc([N+](=O)[O-])s2)cc1`, the Potency is reported as active: 16.4 µM.
In the case of `CCCC(=O)Nc1ccc2c(c1)nc(CN1CCN(C(=O)OCC)CC1)n2C(C)C`, the Potency is reported as inconclusive: 5.17 µM [activator, single point].
With `Cn1c(=O)n(Cc2ccccc2Cl)c2ccccc21` the Potency was inconclusive: 20.6 µM [activator, single point].
With `COc1ccc(OCc2ccc(-c3nc(C#N)c(N4CCN(C)CC4)o3)o2)cc1` the “activity change, negative = inhibition” value was inactive: -23%.
With `Cc1ccccc1C(=O)c1cccn1CC(=O)NCc1ccc(Cl)cc1` the Potency was inconclusive: 29.1 µM [activator, single point].
In the case of `c1ccc2c(c1)Cn1nc(Cc3nc4c(s3)CCCC4)nc1-2`, the Potency is reported as inconclusive: 18.4 µM [activator, partial curve].
For `CCc1cc(=O)oc2c(C)c(OCC(=O)N3CCC[C@@H]3C(=O)O)ccc12`, the “activity change, negative = inhibition” value was inactive: 6.15%.
With `CC(=O)Nc1cc2c(cc1Br)-c1ccccc1C2` the Potency was inconclusive: 11.6 µM [activator, partial curve].
In the case of `COc1ccc(S(=O)(=O)N2CCCCC2)cc1NC(=O)CCNC(=O)c1ccc(Cl)cc1`, the Potency is reported as inconclusive: 4.61 µM [falling, full curve].
For `O=C(CN1CCC(C(=O)c2ccc3c(c2)OCCO3)CC1)Nc1ccccc1F`, the Potency was inconclusive: 16.4 µM [falling, single point].
In the case of `CC(=O)c1cccc(OCc2cc(C(=O)N(C)CCC3CCOCC3)no2)c1`, the Potency is reported as inconclusive: 1.03 µM [activator, full curve].
With `CCOC(=O)c1c(C)[nH]c(C)c1C(=O)COC(=O)c1ccc(Cl)c(S(=O)(=O)NCc2ccccc2)c1` the Potency was inconclusive: 18.4 µM [falling, partial curve, poor fit].
With `COc1ccc(Cl)cc1-n1c(C)cc(C(=O)OCC(=O)N2CC(=O)Nc3ccccc32)c1C` the Potency was active: 18.4 µM.
In the case of `CCN1CCn2c3c(c4cc(C)ccc42)CCCC31` (stereo not drawn), the “activity change, negative = inhibition” value is reported as inactive: 15.5%.
With `Nc1nnc(SCC(=O)c2ccc3ccccc3c2)s1` the Potency was inconclusive: 2.06 µM [activator, full curve, poor fit].
In the case of `CCCOc1ccc(NC(=O)CC2C(=O)N(c3ccc(C)cc3)C(=O)N2C(C)C)cc1` (stereo not drawn), the “activity change, negative = inhibition” value is reported as inactive: 13.5%.
In the case of `O=C(O)CCC(=O)N1N=C(c2ccc(Br)cc2)CC1c1ccc(Br)cc1` (stereo not drawn), the Potency is reported as inconclusive: 25.9 µM [falling, single point].
For `Cc1cc2c(s1)c1cnn(Cc3c(C)cc(F)cc3C)c(=O)c1n2C`, the “activity change, negative = inhibition” value was inactive: 6.94%.
For `CCN(CC)CCCNC(=O)c1c(O)c2cc(F)cc3c2n(c1=O)C(C)CC3` (stereo not drawn), the Potency was inconclusive: 18.4 µM [falling, single point].
For `COc1ccc(NC2=Nc3ccccc3CC2)cc1`, the Potency was inconclusive: 2.59 µM [activator, full curve].
In the case of `CCC(=O)Nc1cc(SCCO)cc([N+](=O)[O-])c1`, the Potency is reported as inconclusive: 32.6 µM [falling, single point].
In the case of `Cc1ccc(C(NC(=O)C2CCCCC2)c2c(O)ccc3ccccc23)cc1` (stereo not drawn), the Potency is reported as inconclusive: 18.4 µM [falling, single point].
For `CC(C)Cn1c(SCC(=O)NC(=O)NC2CCCC2)nc2ccccc21`, the Potency was active: 18.4 µM.
For `COc1cccc(CN(C)C(=O)CCc2nnc(-c3ccsc3)o2)c1`, the Potency was inconclusive: 2.91 µM [activator, full curve, poor fit].
For `c1ccc(C2CSc3ccccc3N2)cc1` (stereo not drawn), the Potency was inconclusive: 14.6 µM [activator, partial curve, poor fit].
For `O=C(Nc1ccccc1F)N1CCc2ccccc2C1`, the Potency was inconclusive: 11.6 µM [activator, partial curve].
In the case of `Cc1cc(N2CCOCC2)c(F)cc1C(=O)c1ccccc1`, the Potency is reported as inconclusive: 11.6 µM [falling, partial curve].
In the case of `COc1ccc(-c2c(-c3cc(OC)cc(OC)c3)n(C)c3ccc(-c4cnc(OC)nc4)cc23)cc1`, the Potency is reported as inconclusive: 18.4 µM [falling, single point].
In the case of `COc1cc(C(=S)N2CCOCC2)ccc1OC(=O)c1ccccc1C`, the Potency is reported as inconclusive: 18.4 µM [falling, partial curve, poor fit].
For `O=C(c1ccccc1)c1cc([N+](=O)[O-])ccc1N1CCOCC1`, the Potency was inconclusive: 29.1 µM [activator, single point].
For `O=C1NC(=O)/C(=C\c2ccccc2OCc2cccc([N+](=O)[O-])c2)N1`, the Potency was inconclusive: 10.3 µM [falling, partial curve, poor fit].
For `CS(=O)(=O)NN1C(=O)c2ccccc2NC1c1cccs1` (stereo not drawn), the Potency was inconclusive: 8.2 µM [activator, partial curve, poor fit].
For `COc1cc(C)ccc1OCc1cc(C(=O)NCCN2CCOCC2)no1`, the Potency was inconclusive: 16.4 µM [activator, partial curve].
In the case of `C=CCn1c(SCC(=O)Nc2ccc(-c3nc4ccc(C)cc4s3)cc2)nnc1-c1ccncc1`, the Potency is reported as inconclusive: 2.91 µM [activator, full curve].
For `Cc1ccccc1-c1noc(-c2ccc(N3CCN(c4ccccc4)CC3)c([N+](=O)[O-])c2)n1`, the Potency was inconclusive: 16.4 µM [activator, single point].
In the case of `C=CCn1c(COc2cccc3ccc(C)nc23)nnc1SCC(=O)O`, the “activity change, negative = inhibition” value is reported as inactive: 5.64%.
In the case of `COC(=O)C1C(=O)c2c([nH]c(C(=O)OC3CCCC3C)c2C)CC1C` (stereo not drawn), the Potency is reported as inconclusive: 4.11 µM [activator, full curve].
In the case of `COc1ccc(NC(=O)c2cc3c(Cl)nc4ccccc4c3s2)cc1OC`, the Potency is reported as active: 10.3 µM.
In the case of `CCN(CC(=O)NCc1cccs1)C(=O)COc1ccc(C(C)=O)cc1`, the “activity change, negative = inhibition” value is reported as inactive: 2.02%.
For `O=C(CSc1ncnc2c1oc1ccccc12)Nc1nc2ccccc2s1`, the Potency was inconclusive: 29.1 µM [falling, single point].
With `Cc1ccccc1Oc1ccc2c(c1)[C@@H]1C[C@H](N(C)C(=O)NC3CCCCC3)[C@H]([C@H](C)O)C(=O)N1CC2` the Potency was inconclusive: 23.1 µM [falling, single point].
With `CN(CC(=O)Nc1cccc(S(=O)(=O)N2CCCC2)c1)CC(=O)Nc1ccc(Cl)c(C(F)(F)F)c1` the Potency was active: 25.9 µM.
In the case of `Cc1ccc(C(=O)NCCc2c[nH]c3ccccc23)c(C)c1`, the Potency is reported as inconclusive: 10.3 µM [activator, partial curve].
In the case of `Cc1nc(C(=O)N2CCC(n3nccc3NC(=O)Nc3ccccc3Cl)CC2)cs1`, the “activity change, negative = inhibition” value is reported as inactive: 5.27%.
For `Cc1ccc(/C=N/NC(=O)c2ccccc2OCc2cccc(Br)c2)o1`, the Potency was inconclusive: 18.4 µM [falling, partial curve, poor fit].
In the case of `Cc1cccc(NC(=O)C(C)OC(=O)c2ccccc2NS(=O)(=O)c2cc(C)c(C)c([N+](=O)[O-])c2)c1` (stereo not drawn), the Potency is reported as inconclusive: 29.1 µM [falling, single point].
With `Nc1ccc2c(c1)[nH]c(=O)c1ccccc12` the Potency was inconclusive: 0.259 µM [falling, full curve, poor fit].
In the case of `CCc1nc(SCC(=O)N2c3ccccc3Sc3ccccc32)c2ccccc2n1`, the Potency is reported as inconclusive: 7.31 µM [falling, partial curve].
With `COC(=O)c1cc(NC(=O)Nc2ccc3snnc3c2)cc(C(=O)OC)c1` the Potency was inconclusive: 20.6 µM [activator, partial curve].
For `CCn1c2c(c(=N)c3c1CCC3)CCC2`, the “activity change, negative = inhibition” value was inactive: 31%.
In the case of `CCS(=O)(=O)N1Cc2ccccc2CC1C(=O)Nc1nnc(SCc2c(Cl)cccc2Cl)s1` (stereo not drawn), the Potency is reported as inconclusive: 32.6 µM [falling, single point].
For `CO/N=C/c1ccc(Oc2ccc(C)cc2)c([N+](=O)[O-])c1`, the Potency was inconclusive: 16.4 µM [activator, partial curve, poor fit].
In the case of `Cc1ccnc(NC(=O)CS(=O)(=O)Cc2ccccc2)c1`, the “activity change, negative = inhibition” value is reported as inactive: -4.69%.
With `Cc1cc(C)c(OCC(=O)NCC2CCCO2)c(C)c1` (stereo not drawn) the Potency was inconclusive: 4.11 µM [falling, partial curve, poor fit].
In the case of `COc1ccc(N/C(C)=C2/C(=O)C(=O)N(CCO)C2c2ccc(Br)cc2)cc1` (stereo not drawn), the Potency is reported as inconclusive: 0.366 µM [falling, full curve, poor fit].
In the case of `COc1ccccc1NC(=O)Nc1nnc(Cc2ccc(F)cc2)s1`, the Potency is reported as inconclusive: 10.3 µM [activator, partial curve].
In the case of `COc1ccc(-c2ccc3ccccc3n2)cc1`, the Potency is reported as inconclusive: 4.11 µM [activator, full curve].
In the case of `CN(C)C(=S)N=c1ssc(=S)n1Cc1ccco1`, the “activity change, negative = inhibition” value is reported as inactive: -1.23%.
In the case of `CC(C)Cn1c(=O)c2ccccc2n2c(CCC(=O)N3CCN(c4cccc(Cl)c4)CC3)nnc12`, the Potency is reported as inconclusive: 29.1 µM [falling, single point].
In the case of `CCC(=O)Nc1ccc(C(=O)NNC(=O)COc2cccc(C)c2)cc1`, the “activity change, negative = inhibition” value is reported as inactive: -2.14%.
In the case of `O=C1CC(Sc2nnnn2-c2ccccc2)C(=O)N1c1cccc(Cl)c1` (stereo not drawn), the “activity change, negative = inhibition” value is reported as inactive: -18.2%.
For `COCCCN(Cc1ccco1)C(=O)c1cc2c(s1)-c1ccccc1OC2`, the Potency was active: 9.2 µM.
In the case of `Cc1c(Cl)cccc1-n1ncc(C(=O)N2CCN(C)CC2)c1C1CCN(C(=O)OC(C)(C)C)CC1`, the “activity change, negative = inhibition” value is reported as inactive: 28.1%.
With `CC(C)COc1ccc(C(=O)Nc2ccc(NC(=O)c3ccco3)c(Cl)c2)cc1` the Potency was active: 16.4 µM.
For `CC(=O)c1cn(CC(=O)Nc2ccccc2Cl)c2ccccc12`, the Potency was inconclusive: 23.1 µM [falling, partial curve, poor fit].
In the case of `COc1cc(F)c(S(=O)(=O)N2CCCN(S(=O)(=O)c3cccc(N)c3)CC2)c(F)c1`, the Potency is reported as active: 25.9 µM.
